The values below come from patent publication EP3625243B1 (Universität Duisburg-Essen, priority 2017, dated 2018).

HELM strings list residues between dots; [ac] is acetyl, [am] amide, other brackets name non-standard units.

A short description of this data set: general procedure: Fmoc solid-phase peptide synthesis; chlorotrityl resin (loaded with Fmoc-Hnv-OAll, 0.2 mmol/g). The note with it: whole synthesis; for isolated yield: scale of the general procedure 0.2 mmol (1000 mg resin).

The substance “PEPTIDE1{[Cbz].A.A.T.A.[Ahp-Leu].[NMePhe].V}$PEPTIDE1,PEPTIDE1,4:R3-8:R2$$$V2.0” showed an isolated mass of 1.2 mg and an isolated yield of 0.6%.
“PEPTIDE1{[Cbz].A.A.T.L.[Ahp-Leu].[NMePhe].V}$PEPTIDE1,PEPTIDE1,4:R3-8:R2$$$V2.0” returned an isolated mass of 11.8 mg and an isolated yield of 6.1%.
“PEPTIDE1{[Cbz].A.A.T.V.[Ahp-Leu].[NMeAla].V}$PEPTIDE1,PEPTIDE1,4:R3-8:R2$$$V2.0” returned an isolated mass of 1.9 mg and an isolated yield of 1.1%.
On to “PEPTIDE1{[Cbz].A.A.T.V.[Ahp-Leu].[NMePhe].V}$PEPTIDE1,PEPTIDE1,4:R3-8:R2$$$V2.0”, for which the isolated mass is listed as 9.9 mg and the isolated yield is listed as 5.2%.
Substance “PEPTIDE1{[Cbz].A.A.T.[Abu].[Ahp-Leu].[NMePhe].V}$PEPTIDE1,PEPTIDE1,4:R3-8:R2$$$V2.0” registered an isolated mass of 1.2 mg and an isolated yield of 1.3%.
The corresponding values for “PEPTIDE1{[Cbz].A.A.T.[AllylGly].[Ahp-Leu].[NMePhe].V}$PEPTIDE1,PEPTIDE1,4:R3-8:R2$$$V2.0” are 1.1 mg and 1.1%.
“PEPTIDE1{[Cbz].A.A.T.[Ile-b-open].[Ahp-Leu].[NMePhe].V}$PEPTIDE1,PEPTIDE1,4:R3-8:R2$$$V2.0” yielded an isolated mass of 2.3 mg and an isolated yield of 1.2%.
On to “PEPTIDE1{[Cbz].A.A.T.[Nva].[Ahp-Leu].[NMePhe].V}$PEPTIDE1,PEPTIDE1,4:R3-8:R2$$$V2.0”, for which the isolated mass is given as 1.0 mg and the isolated yield came to 1.0%.
“PEPTIDE1{[Cbz].A.A.T.[Pra].[Ahp-Leu].[NMePhe].V}$PEPTIDE1,PEPTIDE1,4:R3-8:R2$$$V2.0” came in with an isolated mass of 2.4 mg and an isolated yield of 2.5%.
Turning to “PEPTIDE1{[Cbz].A.A.[3OHLeu].V.[Ahp-Leu].[NMePhe].V}$PEPTIDE1,PEPTIDE1,4:R3-8:R2$$$V2.0”, the isolated mass is recorded as 12.5 mg and the isolated yield amounted to 6.3%.
